Record: PubChem BioAssay AID1508597 (Cure First, 2020)
Assay: 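Survival screen with siRNA in ovarian cancer cells derived from patients, with or without rucaparib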 (primary screen). Cells: human ovarian carcinoma lines grown from tumours: OCI-P5x (papillary serous) and OCI-C5x (clear cell). Reagent: siRNA pool against human genes, 1.25 pmol siRNA per well. Timing: 72 h or 96 h, depending on the cell culture. Treatment: rucaparib 20 µM (about IC30) or vehicle, present until read-out. Rucaparib or vehicle: Rucaparib. Cell line: OCI-P5x (serous). Detection: 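ATP luminescence measured at 72 or 96 h according to the culture, then normalised and expressed as percent viability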. Reading the numbers: viability, normalised: higher = more viable cells remaining. Rule for the call: 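Active when normalised viability falls below 80 percent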. Meaning of the calls: active = viability under 80%; inactive = viability 80% or more.
This is a random part of the about 2,100 reagents, in one setting of the screen. 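Calls flag viability under 80% in either arm, not effects specific to rucaparib; the reference for percent is not stated.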 Some reagents were tested in more than one well and are listed for each. Not stated in the record: the 100% reference.

| gene symbol | technical replicate | viability, normalised (%) | Outcome |
| --- | --- | --- | --- |
| DDX60L (DExD/H-box 60 like) | 1 | 56.2 | active |
| DDX60L (DExD/H-box 60 like) | 2 | 57.4 | active |
| DDX60L (DExD/H-box 60 like) | 3 | 54.7 | active |
| APTX (aprataxin) | 1 | 70.9 | active |
| APTX (aprataxin) | 2 | 77 | active |
| APTX (aprataxin) | 3 | 58.6 | active |
| CERK (ceramide kinase) | 1 | 78 | active |
| CERK (ceramide kinase) | 2 | 89.3 | inactive |
| CERK (ceramide kinase) | 3 | 78.2 | active |
| NSD2 (nuclear receptor binding SET domain protein 2) | 1 | 55.1 | active |
| NSD2 (nuclear receptor binding SET domain protein 2) | 2 | 53.5 | active |
| NSD2 (nuclear receptor binding SET domain protein 2) | 3 | 35.8 | active |
| PLCB1 (phospholipase C beta 1) | 1 | 54.3 | active |
| PLCB1 (phospholipase C beta 1) | 2 | 67 | active |
| PLCB1 (phospholipase C beta 1) | 3 | 49.8 | active |
| PSKH2 (protein serine kinase H2) | 1 | 91.4 | inactive |
| PSKH2 (protein serine kinase H2) | 2 | 82.3 | inactive |
| PSKH2 (protein serine kinase H2) | 3 | 46.7 | active |
| KAT6A (lysine acetyltransferase 6A) | 1 | 50 | active |
| KAT6A (lysine acetyltransferase 6A) | 2 | 46.6 | active |
| KAT6A (lysine acetyltransferase 6A) | 3 | 50.7 | active |
| FANCF (FA complementation group F) | 1 | 64.6 | active |
| FANCF (FA complementation group F) | 2 | 72.5 | active |
| FANCF (FA complementation group F) | 3 | 64.9 | active |
| CLDN12 (claudin 12) | 1 | 67 | active |
| CLDN12 (claudin 12) | 2 | 65.7 | active |
| CLDN12 (claudin 12) | 3 | 59.7 | active |
| ULK3 (unc-51 like kinase 3) | 1 | 76.6 | active |
| ULK3 (unc-51 like kinase 3) | 2 | 57.8 | active |
| ULK3 (unc-51 like kinase 3) | 3 | 67.4 | active |
| SNCA (synuclein alpha) | 1 | 49.1 | active |
| SNCA (synuclein alpha) | 2 | 56.9 | active |
| SNCA (synuclein alpha) | 3 | 54.6 | active |
| GK2 (glycerol kinase 2) | 1 | 91.5 | inactive |
| GK2 (glycerol kinase 2) | 2 | 82.8 | inactive |
| GK2 (glycerol kinase 2) | 3 | 71.9 | active |
| ACTG1 (actin gamma 1) | 1 | 69.5 | active |
| ACTG1 (actin gamma 1) | 2 | 69.3 | active |
| ACTG1 (actin gamma 1) | 3 | 64.6 | active |
| ITPKB (inositol-trisphosphate 3-kinase B) | 1 | 76.3 | active |
| ITPKB (inositol-trisphosphate 3-kinase B) | 2 | 57.3 | active |
| ITPKB (inositol-trisphosphate 3-kinase B) | 3 | 70.8 | active |
| PRG3 (proteoglycan 3, pro eosinophil major basic protein 2) | 1 | 54 | active |
| PRG3 (proteoglycan 3, pro eosinophil major basic protein 2) | 2 | 46.4 | active |
| PRG3 (proteoglycan 3, pro eosinophil major basic protein 2) | 3 | 56.5 | active |
| PROX1 (prospero homeobox 1) | 1 | 34.4 | active |
| PROX1 (prospero homeobox 1) | 2 | 60.9 | active |
| PROX1 (prospero homeobox 1) | 3 | 62.4 | active |
| IL4 (interleukin 4) | 1 | 60.6 | active |
| IL4 (interleukin 4) | 2 | 48 | active |
| IL4 (interleukin 4) | 3 | 51.4 | active |
| PARP10 (poly(ADP-ribose) polymerase family member 10) | 1 | 39.4 | active |
| PARP10 (poly(ADP-ribose) polymerase family member 10) | 2 | 49.7 | active |
| PARP10 (poly(ADP-ribose) polymerase family member 10) | 3 | 42 | active |
| MYLK (myosin light chain kinase) | 1 | 91.3 | inactive |
| MYLK (myosin light chain kinase) | 1 | 81.1 | inactive |
| MYLK (myosin light chain kinase) | 2 | 90.1 | inactive |
| MYLK (myosin light chain kinase) | 2 | 93.2 | inactive |
| MYLK (myosin light chain kinase) | 3 | 101 | inactive |
| MYLK (myosin light chain kinase) | 3 | 78.8 | active |
| TET1 (tet methylcytosine dioxygenase 1) | 1 | 62.3 | active |
| TET1 (tet methylcytosine dioxygenase 1) | 2 | 68 | active |
| TET1 (tet methylcytosine dioxygenase 1) | 3 | 71.8 | active |
| FGFR4 (fibroblast growth factor receptor 4) | 1 | 93.5 | inactive |
| FGFR4 (fibroblast growth factor receptor 4) | 2 | 101 | inactive |
| FGFR4 (fibroblast growth factor receptor 4) | 3 | 75.5 | active |
| TK1 (thymidine kinase 1) | 1 | 88.6 | inactive |
| TK1 (thymidine kinase 1) | 1 | 87 | inactive |
| TK1 (thymidine kinase 1) | 2 | 83.1 | inactive |
| TK1 (thymidine kinase 1) | 2 | 91 | inactive |
| TK1 (thymidine kinase 1) | 3 | 75.4 | active |
| TK1 (thymidine kinase 1) | 3 | 78.9 | active |
| MSH2 (mutS homolog 2) | 1 | 50.9 | active |
| MSH2 (mutS homolog 2) | 1 | 73.6 | active |
| MSH2 (mutS homolog 2) | 2 | 49.8 | active |
| MSH2 (mutS homolog 2) | 2 | 69.2 | active |
| MSH2 (mutS homolog 2) | 3 | 63.9 | active |
| MSH2 (mutS homolog 2) | 3 | 73.5 | active |

Reformatted: 13 of the entries above.
FGFR4 (fibroblast growth factor receptor 4), technical replicate 3 | viability, normalised (%) = 75.5; Outcome = active
TK1 (thymidine kinase 1), technical replicate 1 | viability, normalised (%) = 88.6; Outcome = inactive
TK1 (thymidine kinase 1), technical replicate 1 | viability, normalised (%) = 87; Outcome = inactive
TK1 (thymidine kinase 1), technical replicate 2 | viability, normalised (%) = 83.1; Outcome = inactive
TK1 (thymidine kinase 1), technical replicate 2 | viability, normalised (%) = 91; Outcome = inactive
TK1 (thymidine kinase 1), technical replicate 3 | viability, normalised (%) = 75.4; Outcome = active
TK1 (thymidine kinase 1), technical replicate 3 | viability, normalised (%) = 78.9; Outcome = active
MSH2 (mutS homolog 2), technical replicate 1 | viability, normalised (%) = 50.9; Outcome = active
MSH2 (mutS homolog 2), technical replicate 1 | viability, normalised (%) = 73.6; Outcome = active
MSH2 (mutS homolog 2), technical replicate 2 | viability, normalised (%) = 49.8; Outcome = active
MSH2 (mutS homolog 2), technical replicate 2 | viability, normalised (%) = 69.2; Outcome = active
MSH2 (mutS homolog 2), technical replicate 3 | viability, normalised (%) = 63.9; Outcome = active
MSH2 (mutS homolog 2), technical replicate 3 | viability, normalised (%) = 73.5; Outcome = active
